Molecular target: T1, μ-opioid receptor (MOR) (Homo sapiens, UniProt P35372)
T1 construct: expressed in transfected cells; host or cells: CHO-hOR cells (CHO cells expressing the human opioid receptor)
Test: Opioid receptor radio-ligand binding assay (CHO-hOR cells)
Procedure: Next, the synthesised peptides were subjected to biological activity testing, to know whether they still bind to the opioid receptor. If so, it is tested to which opioid receptor subtype they bind. It is also investigated whether the opioid peptides behave as agonist or antagonist. The following assays are performed: radio-ligand binding assay, ^35S GTP binding assay, and tissue experiments, including guinea pig ileum (GPI) and mouse vas deferens (MVD) tests.

Chains of the proteins cited; added tags and fusions are not shown.
UniProt P35372, whole entry: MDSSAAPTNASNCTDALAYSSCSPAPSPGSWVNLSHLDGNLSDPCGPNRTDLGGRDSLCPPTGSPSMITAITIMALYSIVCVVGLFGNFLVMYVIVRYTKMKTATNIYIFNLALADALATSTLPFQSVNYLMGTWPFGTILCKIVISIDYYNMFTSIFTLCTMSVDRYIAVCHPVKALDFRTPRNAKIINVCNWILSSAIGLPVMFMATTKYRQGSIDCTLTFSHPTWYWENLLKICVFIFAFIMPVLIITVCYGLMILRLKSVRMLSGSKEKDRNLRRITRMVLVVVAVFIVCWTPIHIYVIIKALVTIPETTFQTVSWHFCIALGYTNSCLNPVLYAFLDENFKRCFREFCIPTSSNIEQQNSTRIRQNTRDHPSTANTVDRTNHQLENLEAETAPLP

In the case of N=C(N)NCCC[C@@H](NC(=O)[C@@H](N)Cc1ccc(O)cc1)C(=O)N[C@@H](Cc1ccccc1)C(=O)N[C@@H](Cc1ccccc1)C(N)=O [WTP, H—Y-r-F—F—NH2], the Ki is reported as 8.04 ± 0.44 nM.
